Assay results: patent US20030201224A1, “Microbial consortium for the biodegradation of dithiocarbamates” (priority 2002, published 2003)
Read-outs that look alike come from different tables or passages of the source.

System: consortium
Details: without consortium

CN(C)C(=S)[S-].[Na+] [SDM, Sodium dimethyl dithiocarbamate]
SDM, control (w/o consortium) (time 0 h): 959 mg/mL
SDM, control (w/o consortium) (time 48 h): 923 mg/mL
SDM, control (w/o consortium) (time 80 h): 871 mg/mL
SDM, control (w/o consortium) (time 120 h): 825 mg/mL
SDM, control (w/o consortium) (time 168 h): 812 mg/mL
SDM, control (w/o consortium) (time 312 h): 794 mg/mL
